Results on 3 molecules are retold here after US20190275201A1, “PHOTOPOLYMERIZABLE BONE FILLER MATERIAL” (ECOLE POLYTECHNIQUE FEDERALE DE LAUSANNE (EPFL), priority 2016, published 2019).

This data set can be described thus: Photorheology of photopolymerized bone cement. The note with it: 405 nm; for photopolymerization in photorheology testing: 3.5 mW/cm^2, up to 30 minutes of illumination; for Photopolymerization time: photorheology, 3.5 mW/cm^2, 1000 μm sample.

On to `CC(C)(O)C(=O)c1ccc(OCCO)cc1` [Irgacure 2959, 1-[4-(2-Hydroxyethoxy)-phenyl]-2-hydroxy-2-methyl-1-propane-1-one], for which the “photopolymerization in photorheology testing” value is reported as “did not polymerize” and the Photopolymerization time result is “∞”.
Taken in the same sequence, the figures for `Cc1cc(C)c(C(=O)P(=O)(C(=O)c2c(C)cc(C)cc2C)c2ccccc2)c(C)c1` [Irgacure 819, Phosphine oxide, phenyl bis (2,4,6-trimethyl benzoyl)] were “photopolymerization” and 1 min.
As to `CC12CCC(C(=O)C1=O)C2(C)C` (stereo not drawn) [Camphorquinone], the “photopolymerization in photorheology testing” value is on record as “photopolymerization” and the Photopolymerization time is on record as 15 min.
